Reference: patent US20030049661A1 (JCR PHARMACEUTICALS, published 2003)
These are yes or no findings as the source states them, for the method shown. In cells and extracts the contact can be indirect. Some binding calls cover weakened binding; strength is not graded here. Where a sequence is shown, tags or fusion partners need not be part of it.

By UniProt entry, the sequences of proteins in these tests, tags left out.
UniProt Q9EQZ6: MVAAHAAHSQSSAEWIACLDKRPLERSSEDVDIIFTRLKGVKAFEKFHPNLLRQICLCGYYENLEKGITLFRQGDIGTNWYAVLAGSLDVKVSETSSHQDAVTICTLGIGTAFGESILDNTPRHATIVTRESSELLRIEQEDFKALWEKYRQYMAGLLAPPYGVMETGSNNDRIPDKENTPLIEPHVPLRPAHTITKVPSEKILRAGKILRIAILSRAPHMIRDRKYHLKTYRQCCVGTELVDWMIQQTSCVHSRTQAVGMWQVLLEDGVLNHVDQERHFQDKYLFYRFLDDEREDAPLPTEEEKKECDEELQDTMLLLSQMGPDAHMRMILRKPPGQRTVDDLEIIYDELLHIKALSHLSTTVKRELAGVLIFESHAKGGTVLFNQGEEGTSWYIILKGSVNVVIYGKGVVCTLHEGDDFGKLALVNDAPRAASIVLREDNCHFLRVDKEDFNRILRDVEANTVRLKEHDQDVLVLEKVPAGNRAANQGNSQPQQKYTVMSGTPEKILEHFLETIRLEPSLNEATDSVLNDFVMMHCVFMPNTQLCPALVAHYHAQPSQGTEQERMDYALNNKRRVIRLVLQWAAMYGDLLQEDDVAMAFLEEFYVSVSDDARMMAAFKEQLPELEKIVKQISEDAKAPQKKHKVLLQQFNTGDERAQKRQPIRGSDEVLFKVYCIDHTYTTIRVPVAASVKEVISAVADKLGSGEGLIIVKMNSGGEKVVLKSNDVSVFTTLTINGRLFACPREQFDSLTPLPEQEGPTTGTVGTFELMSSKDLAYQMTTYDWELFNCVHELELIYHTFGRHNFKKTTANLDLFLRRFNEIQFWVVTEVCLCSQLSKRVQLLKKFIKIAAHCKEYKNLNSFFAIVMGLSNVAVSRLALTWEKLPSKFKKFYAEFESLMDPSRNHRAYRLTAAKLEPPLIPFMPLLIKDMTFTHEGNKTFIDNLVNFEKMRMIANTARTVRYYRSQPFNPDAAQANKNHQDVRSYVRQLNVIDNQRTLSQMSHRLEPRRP

Target: cAMP-GEFII (endogenous, in MIN6 cell lysate or mouse brain homogenate) (mouse) (UniProt Q9EQZ6)
Assay: GST pull-down from mouse brain homogenate on glutathione beads, anti-cAMP-GEFII immunoblot

binding: binds
B1: GST-Rim1 (Rim1 partial sequence 530-806) (protein, UniProt Q9JIR4 530-806, looked up, not shown: a dimerising Fc or GST)
chain: PHRPKRGGKRRQMSVSSSEEEGVSTPEYTSCEDVELESESVSEKGDLDYYWLDPATWHSRETSPISSHPVTWQPSKEGDRLIGRVILNKRTTMPKESGALLGLKVVGGKMTDLGRLGAFITKVKKGSLADVVGHLRAGDEVLEWNGKPLPGATNEEVYNIILESKSEPQVEIIVSRPIGDIPRIPESSHPPLESSSSSFESQKMERPSISVISPTSPGALKDAPQVLPGQLSVKLWYDKVGHQLIVNVLQATDLPPRVDGRPRNPYVKMYFLPDRSD
